Experimental data as given in article PMC4507008.
These are yes or no findings as the source states them, for the method shown. Binding seen in cells or lysates may run through a third protein. Some results given as binding are weak or reduced against the parent protein; the word gives no strength. Where a sequence is shown, tags or fusion partners need not be part of it. One block for each binder: values may come before it.

Columns and labels:
[1] = molecular target: T1, recombinant GST-HDA19 fusion protein (Arabidopsis thaliana) (UniProt O22446); assay: pull-down; GST or GST-HDA19 incubated with [35S]Met-labelled translation mixture in bead-binding buffer (50 mM K-phosphate pH 7.6, 450 mM KCl, 10 mM MgCl2, 10% glycerol, 1% Triton X-100, 1% BSA) 1 h at room temperature, then glutathione-Sepharose beads 1 h at 4 °C; SDS-PAGE and fluorography; only the target purified
T1 sequence: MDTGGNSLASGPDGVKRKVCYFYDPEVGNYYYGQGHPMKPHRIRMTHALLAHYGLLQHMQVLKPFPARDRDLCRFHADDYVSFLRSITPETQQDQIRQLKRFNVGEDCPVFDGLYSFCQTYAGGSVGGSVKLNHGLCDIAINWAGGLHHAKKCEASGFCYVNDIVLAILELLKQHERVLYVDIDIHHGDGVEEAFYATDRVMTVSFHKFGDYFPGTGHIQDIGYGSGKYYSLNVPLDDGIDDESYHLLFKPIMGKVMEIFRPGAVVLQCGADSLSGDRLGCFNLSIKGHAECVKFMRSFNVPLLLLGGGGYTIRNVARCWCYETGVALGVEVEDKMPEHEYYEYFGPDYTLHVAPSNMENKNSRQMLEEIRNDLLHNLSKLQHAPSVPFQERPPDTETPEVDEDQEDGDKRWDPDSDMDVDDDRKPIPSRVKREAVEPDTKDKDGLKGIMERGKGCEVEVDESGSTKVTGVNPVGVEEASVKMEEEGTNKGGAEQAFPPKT

[2] = molecular target: T2, HDA19 fused to the C-terminal YFP fragment (Arabidopsis thaliana) (UniProt O22446); assay: split reporter; BiFC with N-YFP and C-YFP fusions co-delivered into Arabidopsis protoplasts; confocal microscopy
T2 sequence: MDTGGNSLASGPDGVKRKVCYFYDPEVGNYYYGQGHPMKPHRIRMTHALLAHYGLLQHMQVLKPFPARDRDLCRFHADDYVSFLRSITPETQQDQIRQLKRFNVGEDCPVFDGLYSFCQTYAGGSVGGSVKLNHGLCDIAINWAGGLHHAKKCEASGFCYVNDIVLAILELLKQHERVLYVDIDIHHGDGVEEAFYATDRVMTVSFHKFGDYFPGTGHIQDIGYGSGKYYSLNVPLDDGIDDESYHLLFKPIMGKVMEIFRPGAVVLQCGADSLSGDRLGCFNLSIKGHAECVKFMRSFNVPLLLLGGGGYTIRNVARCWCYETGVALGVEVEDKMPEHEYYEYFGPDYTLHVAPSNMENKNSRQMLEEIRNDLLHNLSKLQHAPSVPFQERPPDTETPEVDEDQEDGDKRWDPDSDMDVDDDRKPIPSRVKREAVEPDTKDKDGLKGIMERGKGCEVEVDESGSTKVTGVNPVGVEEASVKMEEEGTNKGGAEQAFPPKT

[3] = molecular target: T3, SCL15-sGFP fusion protein (SCL15pro::SCL15-sGFP) (Arabidopsis thaliana) (UniProt O23210); assay: co-IP; nuclear protein extracts of roots of 2-week-old SCL15pro::SCL15-sGFP (Compl-6) seedlings, treated with or without ABA; polyclonal anti-GFP antibody on Dynabeads, 30 min at 4 °C; western blot with anti-HDA19 antibodies
T3 sequence: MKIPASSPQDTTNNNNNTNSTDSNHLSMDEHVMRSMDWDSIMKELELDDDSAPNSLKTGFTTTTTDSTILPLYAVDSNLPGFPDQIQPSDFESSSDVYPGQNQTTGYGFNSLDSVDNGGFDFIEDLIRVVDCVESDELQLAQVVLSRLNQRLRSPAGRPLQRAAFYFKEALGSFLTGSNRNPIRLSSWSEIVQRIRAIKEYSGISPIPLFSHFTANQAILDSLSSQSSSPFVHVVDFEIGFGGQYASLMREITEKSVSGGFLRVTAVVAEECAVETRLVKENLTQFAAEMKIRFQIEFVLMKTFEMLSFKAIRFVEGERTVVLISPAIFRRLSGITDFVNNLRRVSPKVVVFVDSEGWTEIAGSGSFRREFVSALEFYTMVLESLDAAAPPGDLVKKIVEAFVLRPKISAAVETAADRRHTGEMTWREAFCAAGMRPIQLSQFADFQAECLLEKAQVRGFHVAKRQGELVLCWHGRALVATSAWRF

- binding [1]: binds
B1: [35S]methionine-labelled full-length SCL15 protein (protein, UniProt O23210 1-486)
chain: MKIPASSPQDTTNNNNNTNSTDSNHLSMDEHVMRSMDWDSIMKELELDDDSAPNSLKTGFTTTTTDSTILPLYAVDSNLPGFPDQIQPSDFESSSDVYPGQNQTTGYGFNSLDSVDNGGFDFIEDLIRVVDCVESDELQLAQVVLSRLNQRLRSPAGRPLQRAAFYFKEALGSFLTGSNRNPIRLSSWSEIVQRIRAIKEYSGISPIPLFSHFTANQAILDSLSSQSSSPFVHVVDFEIGFGGQYASLMREITEKSVSGGFLRVTAVVAEECAVETRLVKENLTQFAAEMKIRFQIEFVLMKTFEMLSFKAIRFVEGERTVVLISPAIFRRLSGITDFVNNLRRVSPKVVVFVDSEGWTEIAGSGSFRREFVSALEFYTMVLESLDAAAPPGDLVKKIVEAFVLRPKISAAVETAADRRHTGEMTWREAFCAAGMRPIQLSQFADFQAECLLEKAQVRGFHVAKRQGELVLCWHGRALVATSAWRF
modifications: [35S]methionine-labelled

- binding [2]: binds
B2: SCL15 fused to the N-terminal yellow fluorescent protein (YFP) fragment (protein, UniProt O23210 1-486)
chain: MKIPASSPQDTTNNNNNTNSTDSNHLSMDEHVMRSMDWDSIMKELELDDDSAPNSLKTGFTTTTTDSTILPLYAVDSNLPGFPDQIQPSDFESSSDVYPGQNQTTGYGFNSLDSVDNGGFDFIEDLIRVVDCVESDELQLAQVVLSRLNQRLRSPAGRPLQRAAFYFKEALGSFLTGSNRNPIRLSSWSEIVQRIRAIKEYSGISPIPLFSHFTANQAILDSLSSQSSSPFVHVVDFEIGFGGQYASLMREITEKSVSGGFLRVTAVVAEECAVETRLVKENLTQFAAEMKIRFQIEFVLMKTFEMLSFKAIRFVEGERTVVLISPAIFRRLSGITDFVNNLRRVSPKVVVFVDSEGWTEIAGSGSFRREFVSALEFYTMVLESLDAAAPPGDLVKKIVEAFVLRPKISAAVETAADRRHTGEMTWREAFCAAGMRPIQLSQFADFQAECLLEKAQVRGFHVAKRQGELVLCWHGRALVATSAWRF

- binding [3]: binds
B3: HDA19, endogenous in Arabidopsis roots (enzyme, UniProt O22446 1-501)
chain: MDTGGNSLASGPDGVKRKVCYFYDPEVGNYYYGQGHPMKPHRIRMTHALLAHYGLLQHMQVLKPFPARDRDLCRFHADDYVSFLRSITPETQQDQIRQLKRFNVGEDCPVFDGLYSFCQTYAGGSVGGSVKLNHGLCDIAINWAGGLHHAKKCEASGFCYVNDIVLAILELLKQHERVLYVDIDIHHGDGVEEAFYATDRVMTVSFHKFGDYFPGTGHIQDIGYGSGKYYSLNVPLDDGIDDESYHLLFKPIMGKVMEIFRPGAVVLQCGADSLSGDRLGCFNLSIKGHAECVKFMRSFNVPLLLLGGGGYTIRNVARCWCYETGVALGVEVEDKMPEHEYYEYFGPDYTLHVAPSNMENKNSRQMLEEIRNDLLHNLSKLQHAPSVPFQERPPDTETPEVDEDQEDGDKRWDPDSDMDVDDDRKPIPSRVKREAVEPDTKDKDGLKGIMERGKGCEVEVDESGSTKVTGVNPVGVEEASVKMEEEGTNKGGAEQAFPPKT
